# According to PubChem BioAssay AID256 (DTP/NCI, 2004):
# The list does not hold the whole screen: it gathers tests that were run many times, whatever their T/C, doses with no T/C, and many T/C values between a quarter and a half above the control. Further doses and runs are listed elsewhere. T/C is the treated group as % of the vehicle group. Some doses have a count of surviving animals in place of a T/C: the source holds a T/C of zero for them, seemingly a mark for toxic or unscored doses. Some survivor counts are full or nearly so, which does not show that the dose was tolerated: the source hardly ever lists a survival T/C far under the control, and the zero likely stands for such cases as well. Counts of survivors are from the toxicity check (mostly the fifth day) where no day follows; animals may have died later. Schedules are NCI's codes, taken here to give the interval after Q, in days (D) or hours (H), and the number of doses after X. Some structures stand for samples that the source files as different forms (salt, stereo form or complex); doses refer to the form tested. For survival time, the PubChem record calls one and a half times the control and up active, and a quarter to a half above the control has no call in these data; cut-offs in other NCI protocols can differ.
# Tested on: CD2F1 mice, L1210 leukemia ip, survival T/C
# Experiment: NCI In Vivo Anticancer Drug Screen. Data for tumor model L1210 Leukemia (intraperitoneal) in CD2F1 (CDF1) mice
# Conditions: T/C endpoint: mean survival time, higher T/C = longer survival
# Summary of the method: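 Vehicle-treated tumor-bearing mice served as controls (C) for compound-treated mice (T). Reported figure is T divided by C.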
# [1] = dose: 100.0 mg/kg/injection, schedule: Q04DX003 (ip), vehicle: saline with Tween-80
# [2] = dose: 400.0 mg/kg/injection, schedule: Q04DX003 (ip), vehicle: saline with Tween-80
# [3] = dose: 100.0 mg/kg/injection, schedule: Q04DX002 (ip), vehicle: saline with Tween-80
# [4] = dose: 200.0 mg/kg/injection, schedule: Q04DX002 (ip), vehicle: saline with Tween-80
# [5] = dose: 50.0 mg/kg/injection, schedule: Q01DX009 (ip), vehicle: other
structure (smiles),measurement,setting,value
CCN1/C(=C/C(C)=C/c2sc3ccccc3[n+]2CC)Sc2ccccc21,survivor count,"dose: 1.25 mg/kg/injection, schedule: Q01DX001 (ip), vehicle: other",2 of 6
same,survivor count,"dose: 2.5 mg/kg/injection, schedule: Q01DX001 (ip), vehicle: other",2 of 6
same,survivor count,"dose: 75.0 mg/kg/injection, schedule: Q01DX001 (ip), vehicle: other",0 of 6
same,survivor count,"dose: 150.0 mg/kg/injection, schedule: Q01DX001 (ip), vehicle: other",0 of 6
same,survivor count,"dose: 300.0 mg/kg/injection, schedule: Q01DX001 (ip), vehicle: other",0 of 6
same,survivor count,"dose: 800.0 micrograms/kg/injection, schedule: Q04DX003 (ip), vehicle: Klucel (hydroxypropylcellulose) (HPC)",1 of 6
same,survivor count,"dose: 1600.0 micrograms/kg/injection, schedule: Q04DX003 (ip), vehicle: Klucel (hydroxypropylcellulose) (HPC)",3 of 6
N#C/C(=C\c1ccc(-c2ccccc2)cc1)c1ccccc1,survivor count,[1],6 of 6
CCc1ccc(O[Si](C)(C)C)cc1,survivor count,[2],5 of 6
Cc1ccc([Si](C)Cl)cc1,survivor count,"dose: 400.0 mg/kg/injection, schedule: Q01DX009 (ip), vehicle: saline with Tween-80",1 of 6
F[C](F)(F)[Hg][c]1ccccc1,survivor count,[3],0 of 3
same,survivor count,[4],0 of 3
same,survivor count,"dose: 400.0 mg/kg/injection, schedule: Q04DX002 (ip), vehicle: saline with Tween-80",0 of 3
CCCCCCCCCCCCCCCC(=O)N(CCCN(C)C)C1CCC(N(CCCN(C)C)C(=O)CCCCCCCCCCCCCCC)CC1 (stereo not given),survivor count,"dose: 25.0 mg/kg/injection, schedule: Q01DX009 (ip), vehicle: saline with Tween-80",3 of 6
same,survivor count,"dose: 50.0 mg/kg/injection, schedule: Q01DX009 (ip), vehicle: saline with Tween-80",3 of 6
same,survivor count,[1],2 of 6
same,survivor count,"dose: 200.0 mg/kg/injection, schedule: Q04DX003 (ip), vehicle: saline with Tween-80",0 of 6
same,survivor count,[2],0 of 6
O=C(/C=C/c1ccccc1O)/C=C/c1ccccc1O,survivor count,"dose: 100.0 mg/kg/injection, schedule: Q01DX009 (ip), vehicle: saline with Tween-80",3 of 6
O=S(=O)(O)c1ccccc1N=Nc1c(S(=O)(=O)O)cc2cc(S(=O)(=O)O)c(N=Nc3ccccc3S(=O)(=O)O)c(O)c2c1O,survivor count,[2],2 of 6
CSc1cc(C)n2nnnc2n1,survivor count,"dose: 200.0 mg/kg/injection, schedule: Q01DX001 (ip), vehicle: saline",0 of 3
same,survivor count,"dose: 400.0 mg/kg/injection, schedule: Q01DX001 (ip), vehicle: saline",0 of 3
CNC(=O)CCl,survivor count,"dose: 200.0 mg/kg/injection, schedule: Q01DX009 (ip), vehicle: saline",1 of 6
same,survivor count,"dose: 400.0 mg/kg/injection, schedule: Q01DX009 (ip), vehicle: saline",0 of 6
S=P(c1ccccc1)(N1CC1)N1CC1,T/C,"dose: 25.0 mg/kg/injection, schedule: Q01DX009 (ip), vehicle: other",129 % of control
same,T/C,"dose: 33.0 mg/kg/injection, schedule: Q01DX009 (ip), vehicle: other",143 % of control
same,T/C,[5],129 % of control
same,survivor count,[5],1 of 3
same,T/C,[3],133 % of control
same,survivor count,"dose: 112.5 mg/kg/injection, schedule: Q01DX009 (ip), vehicle: other",2 of 6
same,survivor count,"dose: 150.0 mg/kg/injection, schedule: Q04DX003 (ip), vehicle: other",3 of 6
same,survivor count,[4],3 of 3
same,survivor count,"dose: 225.0 mg/kg/injection, schedule: Q04DX002 (ip), vehicle: other",6 of 6
same,survivor count,"dose: 225.0 mg/kg/injection, schedule: Q04DX003 (ip), vehicle: other",0 of 6
same,survivor count,"dose: 600.0 mg/kg/injection, schedule: Q01DX001 (ip), vehicle: other",3 of 6
